Results taken from patent US10273233B2, “Inhibitors of influenza viruses replication” (Vertex Pharmaceuticals Incorporated, priority 2015, dated 2019).
The name of at least one read-out is uncertain.

Experiment: Toxicology formulation stability in 0.5% MC
Format: physicochemical
Settings: 0.5% MC in water suspension at 1, 60 and 100 mg/mL; ambient and 5° C.; two weeks
Description: Hydrate 3 of Compound (1) was evaluated for chemical stability and homogeneity in 0.5% MC in water (suspension) at 1, 60 mg/mL and 100 mg/mL under ambient and refrigerated conditions (5° C.) for two weeks.

With CC(C)(C)[C@@H](CC(=O)O)Nc1nc(-c2c[nH]c3ncc(F)cc23)ncc1F [Hydrate 3 of Compound (1)] the “% recovery” value was 85-115%.
